The test addresses T1, cynomolgus PD-1 recombinant protein (cynomolgus, UniProt B0LAJ3 25-170).
T1 construct: Detected with anti human-Fc cryptate, so probably Fc tagged; also called cyno PD-1; cynomolgus PD-1 (Acro Biosystems cat no. PD-1-05254); not shown: The vendor's carrier tag; It is probably a human Fc, since detection used anti human-Fc cryptate
Put plainly: HTRF binding. A general note: In TR-FRET formats the signal depends on donor and acceptor labels being close together.

Where a chain is given by its changes, count along the chain named. Results are given in words; binding and its absence hold for the method and conditions named. Some entries that bind do so weakly or less than the wild type.

B1: Humabody® 1.1 (VHH)
VHH: QVQLVESGGGLVKPGGSLRLSCAASGFTFSDYTMTWMRQAPGKGLEWVSYISTGGTIKYYTDSVKGRFTISRDNAKNSLYLQMNSLRADDTAVYYCAREAPLRLGESPHDAFDIWGQGTMVTVSS
notes: human VH single domain antibody; also called VH single domain antibody 1.1; clone 1.1
Consider B1, for which the binding entry is listed as “binds”.

B2: Humabody® 1.57 (VHH)
VHH: B1 VHH with Y32N, T33S, T53S, T56G, I57V, K58I, Y59F, T61A, W115S
notes: human VH single domain antibody
Regarding B2, the binding entry is “binds”.

B3: Humabody® 1.92 (VHH)
VHH: B1 VHH with Q1E, Y32E, T33S, T53S, T56G, I57V, Y59F, T61A, D89E, W115S
notes: as for B2
For B3, the binding result was “binds”.

B4: 1.57-4GS-1.57 (other)
chain: QVQLVESGGGLVKPGGSLRLSCAASGFTFSDNSMTWMRQAPGKGLEWVSYISSGGGVIFYADSVKGRFTISRDNAKNSLYLQMNSLRADDTAVYYCAREAPLRLGESPHDAFDISGQGTMVTVSSGGGGSGGGGSGGGGSGGGGSQVQLVESGGGLVKPGGSLRLSCAASGFTFSDNSMTWMRQAPGKGLEWVSYISSGGGVIFYADSVKGRFTISRDNAKNSLYLQMNSLRADDTAVYYCAREAPLRLGESPHDAFDISGQGTMVTVSS
notes: bivalent construct of two VH domains in one chain
B4: the binding entry is given as “binds”.

Values taken from patent US20200239573A1 (CRESCENDO BIOLOGICS, published 2020).
